Assay results taken from patent US7786129B2, “Piperazine derivatives of dialkyl oxindoles” (Egis Gyogyszergyar Nyrt, priority 2004, dated 2010).
At least one compound was matched to its structure with a doubt left.

Target: α1 receptor
Test: α1 receptor binding experiment
Settings: rat isolated frontal cortex preparation, ligand 3H-prazosine 0.3 nM
Protocol: Receptor bindings—with the exception of the 5-HT2C receptor binding—were determined by using cerebral region preparations of male Wistar rats weighing 120-200 g. For the preparation of 5-HT1A receptor binding frontal cortex preparations were used. The al receptor binding studies were performed from isolated frontal cortex pre-parations. For the 5-HT2C receptor binding experiments choroid plexus of pigs was used. The protein contents of membrane preparations were determined by the method of Lowry (1951).
In the course of 5-HT2C and α1 receptor binding experiments the ligands were ^3H-mesulergin (1.0 nM) and ^3H-prazosine (0.3 nM), respectively. The non-specifically binding ligands were mianserine (1 μM and prazosine (1 μM), respectively.
The IC50 value is the value of concentration where the difference between total and non-specific binding is 50% in the presence of a determined concentration of a specific ligand.

| SMILES | IC50 [nM] |
| --- | --- |
| CCC1(CCCCN2CCN(c3cccc(Cl)c3)CC2)C(=O)Nc2ccc(Br)cc21 (stereo not shown) [Example 61, 5-Bromo-3-{4-[4-(3-chlorophenyl)-piperazin-1-yl]-butyl}-3-ethyl-1,3-dihydro-2H-indol-2-one monooxalate] | < 100 |
| CCC1(CCCCN2CCN(c3ccccc3)CC2)C(=O)Nc2ccccc21 (stereo not shown) [Example 68, 3-[4-(4-Phenylpiperazin-1-yl)-butyl]-3-ethyl-1,3-dihydro-2H-indol-2-one monooxalate] | < 100 |
| CCC1(CCCCN2CCN(c3ccccc3OC)CC2)C(=O)Nc2ccccc21 (stereo not shown) [Example 69, 3-Ethyl-3-{4-[4-(2-methoxyphenyl)-piperazin-1-yl]-butyl}-1,3-dihydro-2H-indol-2-one monooxalate] | < 50 |
| CCC1(CCCCN2CCN(c3cccc(Cl)c3)CC2)C(=O)Nc2ccc(S(N)(=O)=O)cc21 (stereo not shown) [Example 72, 3-{4-[4-(3-Chlorophenyl)-piperazin-1-yl]-butyl}-3-ethyl-1,3-dihydro-2H-indol-2-one 5-sulfonamide monooxalate] | < 30 |
